A short description of this experiment: qHTS Assay for Lipid Storage Modulators in Drosophila S3 Cells.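 As to cell number change: cells counted by Cell Tracker Red CMTPX staining in the red channel.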 Conditions: BODIPY lipid droplet fluorescence, 18-24 h; for cell number change: measured here: cell count max response, cells fed with added oleic acid. In a few lines: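 Laser-scanning cytometry quantifies lipid droplet accumulation (500–530 nm total intensity; droplet/cell object ratio) in oleic acid-fed (400 uM added) Drosophila S3 cells treated with a concentration series. 20 uM Triacsin C defined 100% inhibition.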
(Quantitative high-throughput screening tests each substance at several concentrations.)

The mark [1] stands for this setting: measured here: lipid fluorescence (Fed channel) AC50, cells fed with added oleic acid.
The mark [2] stands for this setting: measured here: cell number channel AC50, cells fed with added oleic acid.

This is an account of results in PubChem BioAssay AID2685 (National Center for Advancing Translational Sciences (NCATS), 2010).

Each structure is given as a SMILES string. Several values for one entry are separate records, joined by “and”; a condition that tells them apart may be missing. Identical values can stand only once. The list shows a part of the results. These are further read-outs of the screen, such as a control signal, another cell line or another target. No call is given for them. Compounds called inactive in the main read-out are mostly missing here. Potencies come from curve fits of mixed quality, noted in brackets.

Turning to `CC(=O)Nc1ccc(S(=O)(=O)NC(CC(=O)NCCC2=CCCCC2)C(C)C)cc1` (stereo not given), the cell number change was determined as 23.3%. Besides, the AC50 under setting [1] is 29.1 µM [rising, single point].
`COc1ccc(OC)c(CC(NC(C)=O)C(=O)NC2CCN(C(=O)c3cccc(C)c3)CC2)c1` (stereo not given): the cell number change came out at 8.06%.
For the molecule `Cc1c(C)n2c(SCC(=O)N3CC(C)OC(C)C3)nnc2[nH]c1=O` (stereo not given), the cell number change was -29.9%. In addition, the AC50 under setting [1] is 16.4 µM [falling, single point].
With `COc1cccc(C(=O)O/N=C/c2ccc(Sc3ccc(C)cc3)nc2)c1`, the cell number change came to 14.5%. In addition, under setting [1], the AC50 is 0.58 µM [falling, single point].
Regarding `COc1ccc(OCc2cc(C(=O)NCC(C)Oc3cccnc3)no2)c(Cl)c1` (stereo not given), the cell number change is -15.9%.
With `COc1cc2[nH]c(=O)n(Cc3ccc(C(=O)N4CCC(N5CCCCC5)CC4)cc3)c(=O)c2cc1OC`, the AC50 under setting [1] was 8.2 µM [falling, partial curve].
Regarding `Cc1nn(Cc2ccccc2)c(C)c1C(=O)OCC(=O)c1cc(C)n(CC(F)(F)F)c1C`, the cell number change was -43.9%. For the same molecule, the AC50 under setting [2] is 16.4 µM [falling, partial curve, poor fit]. For the same molecule, under setting [1], the AC50 is 1.84 µM [falling, partial curve].
Consider `CC(C)NC(=O)N1CCOCCOCCN(C(=O)NC(C)C)CCOCCOCC1`, for which the cell number change is -5.29%. The AC50 under setting [1] was 29.1 µM [falling, single point].
Regarding `Cc1ccc(S(=O)(=O)N(CC(O)CN2CCOCC2)c2cc(Cl)ccc2Cl)cc1` (stereo not given), the cell number change was -11.7%.
For the molecule `COCCNC(=O)CN(c1ccc(F)cc1)S(=O)(=O)c1ccc2c(c1)OCCO2`, the AC50 under setting [2] was 0.731 µM [rising, full curve, poor fit].
On to `Cc1c(C(=O)N2CCCC2)c(S(=O)(=O)N2CCN(c3ccccc3F)CC2)c(C)n1C`, for which the cell number change is -7.08%. Further, under setting [2], the AC50 was 7.31 µM [falling, single point]. In addition, under setting [1], the concentration at half-maximal activity (AC50) is 0.58 µM [rising, single point].
Take `COC(=O)c1ccc(NC(=O)COc2cccc3c2OC(C)(C)C3)cc1`: the AC50 runs as follows: under setting [2], 0.206 µM [rising, full curve, poor fit]; under setting [1], 0.164 µM [rising, full curve, poor fit].
For the molecule `CC(=O)NC12CC3CC(C1)CC(C(=O)Nc1nc4c(C)cccc4s1)(C3)C2`, under setting [1], the AC50 was 1.16 µM [falling, full curve].
Turning to `CO/N=C(/CNC(=O)c1cccc(Cl)c1)c1ccc(Cl)cc1`, the AC50 is 6.51 µM [rising, single point] under setting [2] and 1.46 µM [rising, full curve, poor fit] under setting [1].
On to `COc1ccc(NC(=O)c2cc3c(s2)CCC3)cc1S(=O)(=O)N1CCOCC1`, for which the cell number change was determined as 63%. Also, under setting [2], the AC50 is 25.9 µM [rising, single point]. Moreover, the AC50 under setting [1] is 16.4 µM [rising, partial curve].
With `COc1ccc(CCn2c(=N)c(C(=O)NCC3CCCO3)cc3c(=O)n4ccccc4nc32)cc1` (stereo not given), the cell number change was -0.472%.
With `O=C1N(C2CCCC2)C[C@@H]2C[C@@H](c3cn[nH]c3-c3ccc(Cl)cc3)N3CCC[C@@]123`, the cell number change was -17.6%. Besides, under setting [1], the AC50 is 16.4 µM [falling, single point].
As for `COc1ccc(C2=CC(=O)C[C@H](c3ccc(F)cc3)C2)c(F)c1F`, the cell number change is -23.9%. Besides, the AC50 under setting [2] is 0.164 µM [falling, full curve, poor fit]. Further, the AC50 under setting [1] is 0.651 µM [rising, partial curve].
As to `COc1ccc(NC(=O)Cn2c(C(C)C)nc(C)cc2=O)cc1Cl`, the cell number change is -23.8%. Moreover, the concentration at half-maximal activity (AC50) under setting [2] is 3.66 µM [rising, partial curve]. Further, under setting [1], the AC50 is 25.9 µM [falling, single point].
Regarding `C(=C\c1ccccc1)/CN1CCN(c2ncnc3c2oc2ccccc23)CC1`, the cell number change was -22.4%. In addition, under setting [1], the AC50 is 32.6 µM [falling, single point].
For `COc1ccc(C2=Nn3c(nnc3-c3ccncc3)SC2)cc1`, the cell number change was 1.55%. The AC50 under setting [1] is 0.058 µM [rising, full curve].
As for `NCCc1cnc[nH]1`, the cell number change is 10.8% and 6.52%. Under setting [1], the AC50 was 6.51 µM [falling, full curve, poor fit] and 25.9 µM [rising, single point].
For the molecule `COC(=O)c1ccc(Nc2cc(C)nc(-c3ccccc3O)n2)cc1`, the AC50 under setting [1] is 0.517 µM [falling, partial curve, poor fit].
On to `CN1CCN(C(=O)c2cc(Cl)ccc2Cl)CC1`, for which the cell number change was -2.18%. Also, under setting [1], the AC50 is 29.1 µM [falling, single point].
On to `Cc1ccc(Cn2c(=N)n(CC(=O)c3ccccc3)c3ccccc32)cc1`, for which the cell number change was -63.1%. Besides, the AC50 under setting [2] was 18.4 µM [falling, single point].
For `Cc1scc(C(=O)NNC(=S)NCc2ccccc2)c1C`, the cell number change is -17.7%. The AC50 under setting [1] is 9.2 µM [rising, partial curve].
Consider `CCC(C(=O)OCC(=O)Nc1c(C)nn(-c2ccccc2)c1C)c1ccccc1` (stereo not given), for which the cell number change is 8.55%. For the same molecule, the AC50 under setting [2] is 0.651 µM [falling, single point]. Moreover, the AC50 under setting [1] was 0.651 µM [falling, single point].
As for `CCc1ccc(NC(=O)CCNS(=O)(=O)c2cccs2)cc1`, the cell number change is 20.7%. Also, the AC50 under setting [1] was 29.1 µM [rising, single point].
As for `C/C=C/C(=O)OCC(=O)Nc1ccc(OC)c(Cl)c1`, the cell number change was -24.8%.
Turning to `O=C(Cn1nnc(-c2ccccc2)n1)NNC(=O)c1ccccc1`, the cell number change was 24.8%. For the same molecule, the AC50 under setting [1] is 29.1 µM [rising, single point].
As to `Cc1cc(C)nc(Nc2n[nH]c(-c3ccccc3Cl)n2)n1`, the cell number change was -4.22%.
`CCN1CCN(c2ncnc3c2c(-c2ccccc2)cn3-c2ccc(F)cc2)CC1`: the cell number change was -23.3%. In addition, the AC50 under setting [1] is 16.4 µM [falling, single point].
`O=C(O)c1ccc(Nc2ccc([N+](=O)[O-])c3nonc23)cc1`: the cell number change stood at 8.52%. Under setting [1], the AC50 was 25.9 µM [rising, single point].
Turning to `COc1ccc(C(=O)COC(=O)[C@H](C)Nc2ccc(C(F)(F)F)cc2[N+](=O)[O-])c(OC)c1`, the cell number change was -33.8%. For the same molecule, the AC50 under setting [2] was 14.6 µM [falling, single point]. Further, the AC50 under setting [1] was 29.1 µM [falling, single point].
As for `O=C(CSc1ncn[nH]1)N1c2ccccc2Sc2ccccc21`, the cell number change is -32.9%. The AC50 under setting [2] is 29.1 µM [falling, single point].
`COc1ccc(CN2CCCC(CO)(Cc3cccc(Cl)c3)C2)cc1OC` (stereo not given): the cell number change is 24.4%. Besides, the AC50 under setting [1] was 0.0651 µM [rising, full curve, poor fit].
Consider `O=C1[C@@H]2CSCN2C(=O)CN1CCc1cccc(F)c1`, for which the cell number change was -55.5%. In addition, under setting [2], the AC50 was 29.1 µM [falling, single point]. The AC50 under setting [1] is 0.184 µM [falling, full curve, poor fit].
As for `O=C(COc1ccc(-c2ccccc2)cc1)Nc1cccnc1`, the cell number change is -30.9%. The AC50 under setting [2] was 13 µM [falling, single point]. Further, under setting [1], the AC50 is 6.51 µM [falling, full curve, poor fit].
As to `CCc1ccccc1NC(=O)CNC(=O)c1ccccc1OCc1c(C)noc1C`, the AC50 under setting [1] is 29.1 µM [rising, single point].
Consider `CCCN1CCN(CCCNC(=S)Nc2ccc3nc(N4CCN(CC)CC4)cc(C)c3c2)CC1`, for which the cell number change was determined as 34.4%. Besides, the AC50 under setting [2] is 0.58 µM [rising, full curve, poor fit].
For `Cc1ccc(NC(=O)c2sccc2C)cc1[N+](=O)[O-]`, under setting [1], the AC50 is 0.651 µM [falling, partial curve, poor fit].
As for `Nc1ccccc1SCC(=O)Nc1ccc2c(c1)OCO2`, the cell number change was -0.488%.
Turning to `NC(=O)c1cc(-c2csc(-c3cccnc3)n2)ccc1O`, the AC50 under setting [1] was 6.51 µM [falling, partial curve].
Regarding `COc1ccc(-c2nnn(CC(=O)N(Cc3cccs3)C(C)C(=O)NC3CCCC3)n2)cc1OC` (stereo not given), the cell number change is 11%. In addition, under setting [1], the AC50 is 0.82 µM [rising, full curve, poor fit].
As to `Cc1cc(C)c(C)c(S(=O)(=O)N2CCN(CC(=O)c3c(N)n(Cc4ccccc4)c(=O)n(C)c3=O)CC2)c1C`, the cell number change is -23.2%. The AC50 under setting [1] was 16.4 µM [falling, partial curve].
Turning to `COc1ccc(Cl)cc1NC(=O)c1cccc(NC(=O)CCC(=O)O)c1`, the cell number change was -2.76%. Also, the AC50 under setting [2] is 0.291 µM [falling, full curve, poor fit].
For `CC1(C)CC(=O)C=C(NC2CCCC(O)C2)C1` (stereo not given), the cell number change is -41.8%. Besides, the AC50 under setting [2] was 32.6 µM [falling, single point]. The AC50 under setting [1] was 16.4 µM [rising, partial curve].
As to `Cc1cccc(NC(=S)NNc2ncc(C(F)(F)F)cc2Cl)c1`, the cell number change was 2.65%. In addition, the AC50 under setting [1] is 6.51 µM [rising, single point].
For the molecule `CC(=NCCCNC1CCCCC1)C1=C(O)CC(C)(C)CC1=O`, the cell number change is 6.08%. For the same molecule, the AC50 under setting [1] was 29.1 µM [falling, single point].
As for `O=C(Cc1ccc(-n2c(=O)c3sccc3n(Cc3ccc(F)cc3)c2=O)cc1)NCc1ccco1`, the cell number change is -12.7%.
Regarding `CN(C)c1ccc(N2C(=O)CC(Sc3ccccc3C(=O)O)C2=O)cc1` (stereo not given), the cell number change was found to be 12.7%. Further, the AC50 under setting [1] was 6.51 µM [rising, partial curve].
As to `COc1ccccc1NC(=O)NCC(=O)Nc1c(C)cccc1C`, the AC50 under setting [2] was 0.116 µM [rising, single point].
Take `CCCCOCCCNCc1cccn1CCN1CCOCC1`: the cell number change worked out at 24.1%. Besides, the AC50 under setting [1] was 5.8 µM [rising, partial curve].
Turning to `CCN=C1S/C(=C\c2ccc(OC)c(OCC)c2)C(=O)N1CC`, the cell number change stood at 1.23%. Under setting [1], the AC50 was 6.51 µM [rising, single point].
Regarding `CC1=C(C(=O)OCc2ccccc2)C(c2ccccc2Cl)NC(=O)N1C` (stereo not given), the cell number change was -33.2%. Besides, the AC50 under setting [2] was 5.17 µM [falling, partial curve, poor fit]. Under setting [1], the AC50 is 1.3 µM [falling, partial curve].
As for `O=C(Nc1cccc(Cl)c1)OCc1cnc(Cl)s1`, the cell number change was -18.9%. Moreover, under setting [2], the AC50 is 0.00517 µM [falling, full curve, poor fit].
For `CCc1cc2cc3c(cc2nc1SCC(=O)N1CCN(C(=O)c2ccco2)CC1)OCO3`, the cell number change is -20.6%.
`Cc1cccc(C)c1OCc1cc(C(=O)N2CCN(c3ccc(F)cc3)CC2)no1`: the cell number change is -37.8%. Moreover, the AC50 under setting [2] was 29.1 µM [falling, single point].

As usually defined, the AC50 is the concentration at which the activity in the assay is half-maximal.
